Results on one compound are retold here after ChEMBL document CHEMBL5260805, “Therapeutic journey of 2,4-thiazolidinediones as a versatile scaffold: An insight into structure activity relationship” (Eur J Med Chem, 2017).

This test has as its system Klebsiella pneumoniae. Kind of test: Antibacterial activity against Klebsiella pneumoniae. The format is functional.

Values after ≈ are worked out from the molar mass of the structure shown.

As a reminder, the MIC is the lowest concentration that inhibits growth of the organism. For `O=C(O)c1cn(C2CC2)c2cc(N3CCNCC3)c(F)cc2c1=O` [CIPROFLOXACIN], the MIC was 0.78 µg/mL (≈ 2.35 µM).
